PubChem BioAssay AID504804 | Drosophila RNAi Screening Center – 2011
Aim: 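dsRNAs that improve Kc cell survival under doxorubicin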 (primary screen). Cells: Drosophila Kc cells. Knock-down reagent: long dsRNA against Drosophila genes, 0.5 µg dsRNA per well. Duration: 96 h (48 h knock-down, then 48 h drug). Treatment: doxorubicin 5 µg/ml for 48 h, added 48 h after dsRNA. Read-out: 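Luminescent ATP counts per replicate, not normalised, reflecting viable cells after 48 h dsRNA knock-down followed by 48 h of 5 µg/ml doxorubicin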. Direction: raw ATP luminescence: higher = more viable cells, protection from doxorubicin. Rule for the call: 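Active when both duplicate wells lie at least 2 SD above the plate mean and protection is confirmed by rescreening and independent dsRNAs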.
The deposit covers about 19,000 reagents; below is a random part of those with a known target gene and a result. Of all reagents, 47 (0.25%) were called active. 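Signals are raw, not normalised; exact z-scores behind calls not deposited; actives needed confirmation, so some wells reaching 2 SD are inactive.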 Reagents against one gene are numbered here.

The first 3 records, ahead of the listing:
{"target": "Taf5 (GeneID 47900)", "reagent": 1, "raw ATP luminescence, replicate 1": 57430, "raw ATP luminescence, replicate 2": 46827, "call": "inactive"}
{"target": "Vm32E (GeneID 34558)", "reagent": 1, "raw ATP luminescence, replicate 1": 32987, "raw ATP luminescence, replicate 2": 60437, "call": "inactive"}
{"target": "CG6923 (GeneID 41420)", "reagent": 1, "raw ATP luminescence, replicate 1": 64770, "raw ATP luminescence, replicate 2": 25100, "call": "inactive"}

The listing, from the start:
{"target": "Taf5 (GeneID 47900)", "reagent": 1, "raw ATP luminescence, replicate 1": 57430, "raw ATP luminescence, replicate 2": 46827, "call": "inactive"}
{"target": "Vm32E (GeneID 34558)", "reagent": 1, "raw ATP luminescence, replicate 1": 32987, "raw ATP luminescence, replicate 2": 60437, "call": "inactive"}
{"target": "CG6923 (GeneID 41420)", "reagent": 1, "raw ATP luminescence, replicate 1": 64770, "raw ATP luminescence, replicate 2": 25100, "call": "inactive"}
{"target": "CG33521 (GeneID 3346141)", "reagent": 1, "raw ATP luminescence, replicate 1": 2.51e5, "raw ATP luminescence, replicate 2": 2.68e5, "call": "inactive"}
{"target": "CG33521 (GeneID 3346141)", "reagent": 2, "raw ATP luminescence, replicate 1": 43370, "raw ATP luminescence, replicate 2": 49780, "call": "inactive"}
{"target": "CG12684 (GeneID 31390)", "reagent": 1, "raw ATP luminescence, replicate 1": 34960, "raw ATP luminescence, replicate 2": 53210, "call": "inactive"}
{"target": "CG8419 (GeneID 34118)", "reagent": 1, "raw ATP luminescence, replicate 1": 36340, "raw ATP luminescence, replicate 2": 68983, "call": "inactive"}
{"target": "Rbcn-3A (GeneID 31557)", "reagent": 1, "raw ATP luminescence, replicate 1": 44340, "raw ATP luminescence, replicate 2": 42370, "call": "inactive"}
{"target": "CG17075 (GeneID 33191)", "reagent": 1, "raw ATP luminescence, replicate 1": 1.00e5, "raw ATP luminescence, replicate 2": 70120, "call": "inactive"}
{"target": "CG4968 (GeneID 34384)", "reagent": 1, "raw ATP luminescence, replicate 1": 88453, "raw ATP luminescence, replicate 2": 76577, "call": "inactive"}
{"target": "ymp (GeneID 43088)", "reagent": 1, "raw ATP luminescence, replicate 1": 2.76e5, "raw ATP luminescence, replicate 2": 2.93e5, "call": "inactive"}
{"target": "ymp (GeneID 43088)", "reagent": 2, "raw ATP luminescence, replicate 1": 60640, "raw ATP luminescence, replicate 2": 51350, "call": "inactive"}
{"target": "CG32206 (GeneID 40105)", "reagent": 1, "raw ATP luminescence, replicate 1": 54180, "raw ATP luminescence, replicate 2": 73540, "call": "inactive"}
{"target": "CG32206 (GeneID 40105)", "reagent": 2, "raw ATP luminescence, replicate 1": 71753, "raw ATP luminescence, replicate 2": 59613, "call": "inactive"}
{"target": "CG32206 (GeneID 40105)", "reagent": 3, "raw ATP luminescence, replicate 1": 78610, "raw ATP luminescence, replicate 2": 72300, "call": "inactive"}
{"target": "CG32206 (GeneID 40105)", "reagent": 4, "raw ATP luminescence, replicate 1": 80330, "raw ATP luminescence, replicate 2": 75247, "call": "inactive"}
{"target": "CG32206 (GeneID 40105)", "reagent": 5, "raw ATP luminescence, replicate 1": 75470, "raw ATP luminescence, replicate 2": 61200, "call": "inactive"}
{"target": "CG15721 (GeneID 32247)", "reagent": 1, "raw ATP luminescence, replicate 1": 3.32e5, "raw ATP luminescence, replicate 2": 2.84e5, "call": "inactive"}
{"target": "CG14857 (GeneID 41791)", "reagent": 1, "raw ATP luminescence, replicate 1": 75500, "raw ATP luminescence, replicate 2": 72530, "call": "inactive"}
{"target": "Pkcdelta (GeneID 32191)", "reagent": 1, "raw ATP luminescence, replicate 1": 3.36e5, "raw ATP luminescence, replicate 2": 2.74e5, "call": "inactive"}
{"target": "Pkcdelta (GeneID 32191)", "reagent": 2, "raw ATP luminescence, replicate 1": 3.26e5, "raw ATP luminescence, replicate 2": 3.10e5, "call": "inactive"}
{"target": "CG14207 (GeneID 32955)", "reagent": 1, "raw ATP luminescence, replicate 1": 3.26e5, "raw ATP luminescence, replicate 2": 2.80e5, "call": "inactive"}
{"target": "GEFmeso (GeneID 37134)", "reagent": 1, "raw ATP luminescence, replicate 1": 66890, "raw ATP luminescence, replicate 2": 70190, "call": "inactive"}
{"target": "mRpL2 (GeneID 39253)", "reagent": 1, "raw ATP luminescence, replicate 1": 79110, "raw ATP luminescence, replicate 2": 88657, "call": "inactive"}
{"target": "Vha100-4 (GeneID 42214)", "reagent": 1, "raw ATP luminescence, replicate 1": 59760, "raw ATP luminescence, replicate 2": 67020, "call": "inactive"}
{"target": "robo2 (GeneID 44522)", "reagent": 1, "raw ATP luminescence, replicate 1": 1.05e5, "raw ATP luminescence, replicate 2": 51927, "call": "inactive"}
{"target": "CG14695 (GeneID 41314)", "reagent": 1, "raw ATP luminescence, replicate 1": 56263, "raw ATP luminescence, replicate 2": 40387, "call": "inactive"}
{"target": "Rdh (GeneID 2769007)", "reagent": 1, "raw ATP luminescence, replicate 1": 32330, "raw ATP luminescence, replicate 2": 1.80e5, "call": "inactive"}
{"target": "Rdh (GeneID 2769007)", "reagent": 2, "raw ATP luminescence, replicate 1": 34767, "raw ATP luminescence, replicate 2": 47083, "call": "inactive"}
